Here are results for one molecule from WO2013078377A1.

Chains of the proteins cited; added tags and fusions are not shown. Lines headed by an entry give the natural chain unless they say otherwise; changes in a name come on top. A line that says so, or that is headed by a name, gives the form on record, which may keep a tag or linker.
cynomolgus monkey CD98 on a cell line expressing it (I7GH21, form named): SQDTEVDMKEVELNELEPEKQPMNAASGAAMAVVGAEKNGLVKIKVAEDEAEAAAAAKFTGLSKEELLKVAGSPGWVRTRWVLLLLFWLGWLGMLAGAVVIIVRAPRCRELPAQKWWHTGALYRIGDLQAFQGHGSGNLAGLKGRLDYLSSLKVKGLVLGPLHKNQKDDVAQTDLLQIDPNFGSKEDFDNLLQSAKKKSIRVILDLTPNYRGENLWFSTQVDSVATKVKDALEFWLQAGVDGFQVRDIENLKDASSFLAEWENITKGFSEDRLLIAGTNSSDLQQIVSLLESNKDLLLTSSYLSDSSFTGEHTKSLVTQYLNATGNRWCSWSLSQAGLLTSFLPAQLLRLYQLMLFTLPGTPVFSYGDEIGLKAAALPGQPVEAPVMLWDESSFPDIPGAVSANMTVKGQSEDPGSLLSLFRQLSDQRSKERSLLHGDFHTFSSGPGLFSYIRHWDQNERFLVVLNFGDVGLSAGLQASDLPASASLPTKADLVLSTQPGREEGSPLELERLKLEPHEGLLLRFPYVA

This assay addresses cynomolgus monkey CD98 on a cell line expressing it (cynomolgus monkey) (UniProt I7GH21). As to the kind of experiment: FACS on a cell line expressing cynomolgus monkey CD98.

These are yes or no findings as the source states them, for the method shown. Some binding calls cover weakened binding; strength is not graded here.

B1: chimeric anti-CD98 monoclonal antibody 18-2A 7.1 (antibody, V domains shown)
VH: QVQLQQSGAELVRPGTSVKVSCKASGNAFTNYLIEWIKQRPGQGLEWIGVINPGSGITNYNEKFKGKATLTADKSSNTAYMQLSSLSSDDSAVYFCSGSANWFAYWGQGTLVTVSA
VL: DIVMSQSPSSLAVSVGEKVTMSCKSSQSLLYSSNQKNYLAWYQQKPGQSPKLLIYWASTRDSGVPDRFTGSGSGTDFTLTISSVKAEDLAVYYCQRYYGYPWTFGGGTKLEIK
Turning to B1, the binding entry was “binds”.
